Values from PubChem BioAssay AID504791 (Drosophila RNAi Screening Center, 2011)

Assay: 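Factors in Argonaute-based small RNA production and activity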 (primary screen)
System: Drosophila S2-derived reporter cells
Reagents: long dsRNA against Drosophila genes, about 150-250 ng dsRNA per well (siRNA assay); about 80-120 ng (miRNA assay)
Time to read-out: about 5 days (siRNA assay); about 4 days (miRNA assay)
Challenge: copper sulfate induction of reporters: 25 µM (siRNA assay); 200 mM stated (miRNA assay), 1-2 days before reading
Measured: 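Dual luciferase assay: Renilla to firefly signal ratio in each well, scaled to the mean ratio of its plate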
Reading the numbers: siRNA reporter hit score: higher = 3 marks a strong hit with raised ratio; -3 a strong hit with lowered ratio
Rule for the call: 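First-pass picks had plate-scaled ratios over 1.5 for the siRNA assay, over 1.6 for the miRNA assay, or under 0.6; two distinct dsRNAs had to score alike on retest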
The deposit covers about 23,000 reagents; shown is an unselected part of those that have a named target and a result. In the full data, 199 (0.86%) are marked active. 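Plate-scaled ratios behind the calls are not deposited; printed light signals are raw; many rows marked increased or decreased are still called inactive.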 Unmarked entries are inactive. Reagents against one gene are numbered here. A plus sign joins genes that one reagent is predicted to hit.

target gene | reagent no. | siRNA reporter hit score | stable siRNA reporter change | miRNA reporter change | stable assay Renilla, run 1 (luminescence) | stable assay firefly, run 1 (luminescence)
sphinx1 | 1 | – | – | – | 6846 | 4.99e5
CG3500 | 1 | – | – | – | 6154 | 3.22e5
dysf | 1 | – | – | – | 8059 | 3.39e5
dysf | 2 | – | – | – | 6519 | 2.84e5
dysf | 3 | – | – | – | 6910 | 3.26e5
dysf | 4 | – | – | – | 5415 | 1.78e5
CG6923 | 1 | – | – | – | 7914 | 4.10e5
Zdhhc8 | 1 | – | – | reporter ratio raised past the hit cutoff | 4515 | 3.02e5
Zdhhc8 | 2 | – | – | – | 5343 | 4.18e5
sxc | 1 | – | – | – | 5526 | 2.97e5
lncRNA:roX2 | 1 | – | – | – | 8695 | 5.41e5
Cyp301a1 | 1 | – | – | – | 5460 | 2.38e5
CG3548 | 1 | – | – | – | 33989 | 1.67e6
Taf1 | 1 | – | – | – | 5495 | 5.07e5
PMP34 | 1 | – | – | – | 9411 | 6.35e5
Cp36 | 1 | – | – | – | 4976 | 2.78e5
Dnali1 | 1 | – | – | – | 9223 | 5.06e5
CG31845 (retired record) | 1 | – | – | – | 9996 | 6.57e5
CG31845 (retired record) | 2 | – | – | – | 4835 | 4.17e5
in | 1 | – | – | – | 6575 | 4.41e5
TkR99D | 1 | – | – | – | 5436 | 4.10e5
CG6005 | 1 | – | – | – | 8483 | 4.55e5
sif | 1 | – | – | – | 4652 | 4.02e5
sif | 2 | – | – | – | 5762 | 4.03e5
sif | 3 | – | – | – | 9760 | 6.07e5
sif | 4 | – | – | – | 4299 | 3.86e5
CG1695 | 1 | – | – | – | 6471 | 3.49e5
CG33339 | 1 | – | – | – | 2687 | 2.94e5
CG4409 | 1 | – | – | – | 6939 | 3.01e5
lqf | 1 | – | – | – | 8646 | 3.65e5
CG42299 + CG42300 | 1 | – | – | – | 6110 | 4.49e5
CG42299 + CG42300 | 2 | – | – | – | 5443 | 4.41e5
ProtA | 1 | – | – | – | 7674 | 5.76e5
CG4592 | 1 | – | – | – | 11010 | 1.23e6
Damm | 1 | – | – | – | 5930 | 3.49e5
CG15710 | 1 | – | – | – | 6415 | 3.51e5
Pino | 1 | – | – | – | 5051 | 3.36e5
Pino | 2 | – | – | – | 63758 | 1.61e5
CG31675 | 1 | – | – | – | 4758 | 2.49e5
CG3246 | 1 | – | – | – | 8628 | 4.35e5
cDIP | 1 | – | – | – | 9346 | 3.95e5
CG14655 | 1 | – | – | – | 5404 | 4.10e5
IntS1 | 1 | -3 | – | – | 2.32e5 | 2.72e6
Sclp | 1 | – | reporter ratio lowered past the hit cutoff | – | 5739 | 6.28e5
Lcp65Ag3 | 1 | – | – | – | 3840 | 4.71e5
CG14411 | 1 | – | – | – | 5372 | 4.71e5
Dic1 | 1 | – | – | – | 7805 | 4.47e5
CG42735 (retired record) | 1 | – | – | – | 5215 | 3.92e5
TRAM | 1 | – | – | – | 5768 | 3.00e5
TRAM | 2 | – | – | – | 6398 | 3.76e5
Lamtor1 | 1 | – | – | – | 7602 | 4.49e5
Edg84A | 1 | – | – | – | 7727 | 4.68e5
CG14933 + CG42486 | 1 | – | – | – | 7466 | 5.00e5
Vha100-5 | 1 | – | – | – | 6938 | 4.31e5
GstE8 | 1 | – | – | – | 10730 | 4.43e5
sra | 1 | – | – | – | 11434 | 5.12e5
Golgin104 | 1 | – | – | – | 8747 | 3.44e5
CG34148 + P5CDh2 | 1 | – | – | – | 4472 | 4.58e5
ND-B14 | 1 | – | – | – | 5552 | 3.69e5
Targ3 | 1 | – | – | – | 8140 | 7.15e5
CG31705 | 1 | – | – | – | 5272 | 4.12e5
NPF | 1 | – | – | – | 6744 | 4.74e5
Ubc4 | 1 | – | – | – | 9389 | 5.15e5
Nsun2 | 1 | – | – | – | 3615 | 3.56e5
CG12964 | 1 | – | – | – | 4664 | 5.09e5
CG12964 | 2 | – | – | – | 5143 | 3.71e5
CG6508 | 1 | – | – | – | 7846 | 3.32e5
mAChR-C | 1 | – | – | – | 5544 | 3.03e5
IP3K1 | 1 | – | – | – | 6587 | 4.61e5
Cdk5 | 1 | – | – | – | 11832 | 4.47e5
mRpL33 | 1 | – | – | – | 5538 | 3.88e5
uzip | 1 | – | – | – | 19660 | 1.26e6
Nmt | 1 | – | – | – | 7195 | 4.55e5
chk | 1 | – | – | – | 8974 | 1.49e6
CG31808 | 1 | – | – | – | 4794 | 4.91e5
RpS10b | 1 | – | – | – | 4827 | 3.43e5
CG8119 | 1 | – | – | – | 5814 | 4.00e5
CNT1 + CG13742 | 1 | – | – | – | 5711 | 2.85e5
CG14072 | 1 | – | – | – | 8271 | 4.79e5
Rcd6 | 1 | – | – | – | 8755 | 2.50e5
nab | 1 | – | – | – | 6727 | 3.57e5
nab | 2 | – | – | – | 6270 | 3.79e5
TbCMF46 | 1 | – | – | – | 6618 | 3.93e5

Quoted from the listing for reference:
target gene | reagent no. | siRNA reporter hit score | stable siRNA reporter change | miRNA reporter change | stable assay Renilla, run 1 (luminescence) | stable assay firefly, run 1 (luminescence)
CG12964 | 1 | – | – | – | 4664 | 5.09e5
CG12964 | 2 | – | – | – | 5143 | 3.71e5
CG6508 | 1 | – | – | – | 7846 | 3.32e5
mAChR-C | 1 | – | – | – | 5544 | 3.03e5
IP3K1 | 1 | – | – | – | 6587 | 4.61e5
Cdk5 | 1 | – | – | – | 11832 | 4.47e5
mRpL33 | 1 | – | – | – | 5538 | 3.88e5
uzip | 1 | – | – | – | 19660 | 1.26e6
Nmt | 1 | – | – | – | 7195 | 4.55e5
